Several values for one entry are separate records, joined by “and”; a condition that tells them apart may be missing. Identical values can stand only once.
How the values were obtained:
[1] = tested on: olfactory cerebral arteries; experiment: Myogenic tone of isolated olfactory cerebral arteries after in vivo treatment; design: species or system mouse
Procedure: Induction of Subarachnoid Hemorrhage: A well-characterized model of experimental SAH (6) was used. Briefly, each mouse was anaesthetized (isoflurane) and its head was fixed in a stereotactic frame: a 7 mm incision was made along the midline of the anterior scalp and 0.9 mm hole drilled into the skull 4.5 mm anterior to the bregma. A spinal needle was advanced to the chiasmatic cistern: 80 μl of arterial blood was injected into the intracranial space over 10 seconds. […] Following injection, the scalp incision was closed. Buprenorphine (0.05 mg/kg; 0.5-1.0 ml volume) was administered twice/day (initiated immediately following the SAH surgical procedure). Sham-operated animals underwent an identical surgical procedure, with sterile saline injected instead of blood. Olfactory cerebral arteries were isolated at 2 days post-SAH induction.
Isolation and functional assessment of resistance arteries: Mouse olfactory (a first branch of the anterior cerebral artery) and PCAs were carefully dissected, cannulated onto micropipettes, stretched to their in vivo lengths and pressurized to 45 mmHg, as previously described (3,6); mouse skeletal muscle resistance arteries were dissected from the cremaster muscle, cannulated and pressurized to 60 mmHg. All functional experiments were conducted in 3-morpholinopropanesulfonic acid (MOPS) buffered saline at 37° C. with no perfusion. […]
(§1) Myogenic responses were elicited by step-wise 20 mmHg increases in transmural pressure from 20 mmHg to 80 mmHg (olfactory arteries) or 100 mmHg (posterior cerebral arteries and cremaster skeletal muscle resistance arteries). At each pressure step, vessel diameter (diaactive) was measured once a steady state was reached (5 min). Vessels requiring treatment (e.g., CFTR(inh)-172) were incubated with the reagent in MOPS for 30 min and myogenic responses were then assessed in the presence of that reagent. Following completion of all diaactive measurements, MOPS buffer was replaced with a Ca^2+-free version and maximal passive diameter (diamax) was recorded at each pressure step.
(§2) Myogenic tone was calculated as the percent constriction in relation to the maximal diameter at each respective transmural pressure: tone (% of diamax)=[(diamax−diaactive)/diamax]×100, where diaactive is the vessel diameter in MOPS containing Ca^2+ and diamax is the diameter in Ca^2+-free MOPS. Analyses of vasomotor responses to phenylephrine used the same calculation, only in this case, diaactive represents the vessel diameter at steady state following application of the given agent and diamax represents the maximal diameter measured under Ca^2+-free conditions.

[2] = tested on: posterior cerebral arteries; experiment: Phenylephrine responses of isolated posterior cerebral arteries; type: in vivo, mouse
Procedure: Isolation and functional assessment of resistance arteries: Mouse olfactory (a first branch of the anterior cerebral artery) and PCAs were carefully dissected, cannulated onto micropipettes, stretched to their in vivo lengths and pressurized to 45 mmHg, as previously described (3,6); mouse skeletal muscle resistance arteries were dissected from the cremaster muscle, cannulated and pressurized to 60 mmHg. All functional experiments were conducted in 3-morpholinopropanesulfonic acid (MOPS) buffered saline at 37° C. with no perfusion. Vasomotor responses to phenylephrine (5 μmol/L for posterior cerebral arteries, 10 μmol/L for cremaster skeletal muscle arteries) provided an assessment of vessel viability at the beginning and end of each experiment. Arteries failing to show ≥25% constriction to phenylephrine were excluded.
as §2

[3] = tested on: posterior cerebral arteries; experiment: Myogenic tone of isolated posterior cerebral arteries after in vivo treatment; design: species or system mouse
Excerpt: Myocardial infarction: HF was induced by surgical ligation of the left anterior descending coronary artery (3). Briefly, mice were anaesthetized with isoflurane, intubated with a 20-gauge angiocatheter and ventilated with room air. Under sterile conditions, the thorax and pericardium were opened, and the left anterior descending coronary artery was permanently ligated with 7-0 silk suture (Deknatel: Fall River, USA). In sham-operated controls, the thorax and pericardium were opened, but the left anterior descending coronary artery was not ligated. Following the procedure, the chest was closed and the mice were extubated upon spontaneous respiration. Posterior cerebral arteries (PCAs) were isolated 4-6 weeks post-infarction. […]
as §1, §2

| SMILES | mean maximal vessel diameter at 45 mmHg (diamax) ([1]; CFTR KO+C18 group) | mean maximal vessel diameter at 45 mmHg (diamax) ([1]; SAH+C18 group) | mean maximal vessel diameter at 45 mmHg (diamax) ([1]; Sham+C18 group) | mean maximal vessel diameter at 45 mmHg (diamax) ([2]; HF+C18 group, FIG. 11) | mean maximal vessel diameter at 45 mmHg (diamax) ([2]; Sham+C18 group, FIG. 12 second panel (phenylephrine)) | mean maximal vessel diameter at 45 mmHg (diamax) ([3]; CFTR KO+C18 group) | mean maximal vessel diameter at 45 mmHg (diamax) ([3]; HF+C18 group, FIG. 3) | mean maximal vessel diameter at 45 mmHg (diamax) ([3]; Sham+C18 group, FIG. 12 Panel A (myogenic tone)) | mean maximal vessel diameter at 45 mmHg (diamax) ([1]; SAH+Lum group) |
| --- | --- | --- | --- | --- | --- | --- | --- | --- | --- |
| O=C(Nc1ncc(C(c2ccccc2Cl)N2CCC(O)C2)s1)C1(c2ccc3c(c2)OCO3)CC1 (stereo not drawn) [C18, 1-(benzo[d][1,3]dioxol-5-yl)-N-(5-((2-chlorophenyl)(3-hydroxypyrrolidin-1-yl)methyl)thiazol-2-yl)cyclopropanecarboxamide] | 96±6 μm | 104±12 μm and 105±12 μm | 110±8 pm | 140±8 pm | 130±10 μm | 145±5 μm | 155±8 μm | 138±9 μm | – |
| Cc1ccc(NC(=O)C2(c3ccc4c(c3)OC(F)(F)O4)CC2)nc1-c1cccc(C(=O)O)c1 [lumacaftor] | – | – | – | – | – | – | – | – | 87±4 μm |

Source: patent publication US20210346359A1, “Use of CFTR Modulators For Treating Cerebrovascular Conditions” (Qanatpharma AG, priority 2018, published 2021)
